Article PMC12404741
Results are given in words; binding and its absence hold for the method and conditions named. Binding seen in cells or lysates may run through a third protein. Some entries that bind do so weakly or less than the wild type.

Amino acid sequences for entries named in this document (tags omitted).
UniProt O00270: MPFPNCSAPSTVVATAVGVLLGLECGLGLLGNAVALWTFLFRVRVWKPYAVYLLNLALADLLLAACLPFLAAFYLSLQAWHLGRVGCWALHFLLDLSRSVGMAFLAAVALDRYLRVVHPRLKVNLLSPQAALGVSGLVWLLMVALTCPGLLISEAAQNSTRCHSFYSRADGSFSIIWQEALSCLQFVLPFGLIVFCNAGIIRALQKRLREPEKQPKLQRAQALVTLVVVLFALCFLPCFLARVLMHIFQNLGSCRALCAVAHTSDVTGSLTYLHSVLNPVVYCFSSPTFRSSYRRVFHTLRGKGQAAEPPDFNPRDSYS
UniProt P08754: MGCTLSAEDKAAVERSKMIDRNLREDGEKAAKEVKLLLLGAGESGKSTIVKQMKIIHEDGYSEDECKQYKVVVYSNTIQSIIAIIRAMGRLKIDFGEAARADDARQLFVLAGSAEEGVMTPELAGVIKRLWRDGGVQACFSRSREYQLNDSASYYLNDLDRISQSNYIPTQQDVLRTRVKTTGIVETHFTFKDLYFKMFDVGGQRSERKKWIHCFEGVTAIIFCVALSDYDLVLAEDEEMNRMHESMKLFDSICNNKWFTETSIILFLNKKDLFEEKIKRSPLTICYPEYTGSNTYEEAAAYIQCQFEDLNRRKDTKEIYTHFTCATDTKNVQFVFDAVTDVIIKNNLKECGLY

Legend:
[1] = target: GPR31 (GST pull-down) (human) (UniProt O00270); assay: pull-down; GST-fusion protein pull-down of GPR31 and GNAI3; no further details shown
GPR31 (GPR31-WT) (human) = GPR31 (GPR31-WT) (human) (UniProt O00270); assay: co-IP; HEK293T cells transfected 24 h; IP lysis buffer (20 mM Tris-HCl, 150 mM NaCl, 1 mM EDTA, 1% NP-40, pH 7.4); protein A/G agarose beads and specific antibodies 4 h at 4°C; Western blot; some panels with or without G4451

| Substance | binding [1] | binding (GPR31 (GPR31-WT) (human)) |
| --- | --- | --- |
| Gαi3 (GNAI3) (GST pull-down) (from UniProt P08754 1-354) | binds | – |
| Gαi3 (GNAI3) (from UniProt P08754 1-354) | – | binds |
